The experiment addresses recombinant human vimentin protein (human) (UniProt P08670). As to the kind of experiment: pull-down; cell-free; 1 μg of HPV16-PsVs (with or without furin pretreatment) per 10 μg of immobilized recombinant human vimentin (Pierce coimmunoprecipitation kit); Western blot with CamVir1; both purified. In general terms: Immunoblotting shows a protein as a band on a membrane.

Amino acid sequences for entries named in this document (tags omitted). A change or cut given only in a name is not applied to a line headed by its entry.
UniProt P08670: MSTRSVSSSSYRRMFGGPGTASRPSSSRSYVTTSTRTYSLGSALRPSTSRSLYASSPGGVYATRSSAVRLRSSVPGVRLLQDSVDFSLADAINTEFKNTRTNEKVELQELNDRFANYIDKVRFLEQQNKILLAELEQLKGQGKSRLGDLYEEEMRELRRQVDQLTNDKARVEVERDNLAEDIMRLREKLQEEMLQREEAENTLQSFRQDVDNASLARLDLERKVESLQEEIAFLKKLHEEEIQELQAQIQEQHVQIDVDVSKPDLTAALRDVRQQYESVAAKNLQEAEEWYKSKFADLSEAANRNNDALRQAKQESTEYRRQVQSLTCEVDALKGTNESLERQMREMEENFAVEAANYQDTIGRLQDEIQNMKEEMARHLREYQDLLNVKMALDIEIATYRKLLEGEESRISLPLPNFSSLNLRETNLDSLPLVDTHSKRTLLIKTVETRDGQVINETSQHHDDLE
UniProt P03101: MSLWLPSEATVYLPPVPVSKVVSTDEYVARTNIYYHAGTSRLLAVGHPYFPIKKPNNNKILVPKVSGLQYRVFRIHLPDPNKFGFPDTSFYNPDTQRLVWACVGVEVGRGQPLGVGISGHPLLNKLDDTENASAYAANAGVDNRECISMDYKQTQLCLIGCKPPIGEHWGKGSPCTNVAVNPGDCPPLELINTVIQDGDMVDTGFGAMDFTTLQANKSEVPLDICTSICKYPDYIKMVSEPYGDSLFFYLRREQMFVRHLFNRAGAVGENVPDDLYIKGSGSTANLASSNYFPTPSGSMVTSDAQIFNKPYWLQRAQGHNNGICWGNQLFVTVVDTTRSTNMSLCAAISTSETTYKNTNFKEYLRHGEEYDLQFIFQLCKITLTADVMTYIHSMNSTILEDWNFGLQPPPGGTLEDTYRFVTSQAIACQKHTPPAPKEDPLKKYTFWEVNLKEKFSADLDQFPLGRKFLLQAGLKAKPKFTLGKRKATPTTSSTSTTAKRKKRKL

The text below walks through data of publication PMC5533935.

These are yes or no findings as the source states them, for the method shown. Some entries that bind do so weakly or less than the wild type.

Take “HPV16 pseudovirions (untreated, not furin-cleaved) (from UniProt P03101 1-505; P03107 1-473) (complex)”: the binding entry is “binds”.
